This passage reports binding results from paper PMC9564825.

The target in the test is β-tubulin of the human sperm SMT (human (endogenous in spermatozoa)). The test is described as follows: cryo-EM structure; single-particle cryo-EM of the 8-nm repeat of native singlet microtubules at the distal tip of demembranated human spermatozoa; 6.0 Å consensus, 4.5 to 4.7 Å after protofilament-focused refinement.

No constants are given. Whether binding was seen depends on the method and setting. Binding can be weak; no strength is given.

B1: SPACA9 (protein, UniProt Q96E40 1-222)
chain: MNEVKESLRSIEQKYKLFQQQQLTFTAALEHCRENAHDKIRPISSIGQVQSYMEHYCNSSTDRRVLLMFLDICSELNKLCQHFEAVHSGTPVTNNLLEKCKTLVSQSNDLSSLRAKYPHDVVNHLSCDEARNHYGGVVSLIPLILDLMKEWIAHSEKLPRKVLQHVSEPQAHQESTRGAARPAQAIGTQPRATKHKCRQLTKASLKPRGCSKPPWRPPGGKL
Turning to B1, the binding result is “binds”.
